{"source": "the supplement of paper PMC10735217", "tested_on": "HEK293A TEAD-LUC reporter", "assay": "TEAD-luciferase reporter activity (YAP activation), robust Z score vs plate; higher = stronger YAP/TEAD activation", "conditions": "24 h", "note": "Structures can show the parent of a compound that is named as a salt. The list shows a part of the results. Single values are uncertain here, since repeats match poorly.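 The human kidney-derived cells carry a stably integrated construct of eight TEAD-binding elements driving luciferase, read by luminescence in a drug-repurposing library screen. A compound counts as a hit when its signal is more than five robust Z scores above the plate mean.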", "data": [{"smiles": "CC(=O)c1ccc(S(=O)(=O)NC(=O)NC2CCCCC2)cc1", "values": [{"measurement": "TEAD-luciferase reporter activity", "setting": "compound concentration: 200 nM", "result": "inactive: -0.438"}, {"measurement": "TEAD-luciferase reporter activity", "setting": "compound concentration: 10 uM", "result": "inactive: -1.44"}]}, {"smiles": "CC(=O)c1ccc(S(=O)(=O)NC(=O)NC2CCCCC2)cc1", "note": "[Acetohexamide]", "values": [{"measurement": "TEAD-luciferase reporter activity", "setting": "compound concentration: 2 uM", "result": "inactive: 0.624"}]}, {"smiles": "CCC1OC(=O)C(C)(F)C(=O)C(C)C(OC2OC(C)CC(N(C)C)C2O)C(C)(OC)CC(C)C(=O)C(C)C2N(CCCCn3cc(-c4cccc(N)c4)nn3)C(=O)OC12C", "note": "(stereo not drawn) [solithromycin]", "values": [{"measurement": "TEAD-luciferase reporter activity", "setting": "compound concentration: 200 nM", "result": "inactive: 0.453"}, {"measurement": "TEAD-luciferase reporter activity", "setting": "compound concentration: 2 uM", "result": "inactive: -0.726"}, {"measurement": "TEAD-luciferase reporter activity", "setting": "compound concentration: 10 uM", "result": "inactive: 0.611"}]}, {"smiles": "CCCCCCCCCCCC1=C(O)C(=O)C=C(O)C1=O", "values": [{"measurement": "TEAD-luciferase reporter activity", "setting": "compound concentration: 200 nM", "result": "inactive: 0.574"}, {"measurement": "TEAD-luciferase reporter activity", "setting": "compound concentration: 2 uM", "result": "inactive: -0.292"}, {"measurement": "TEAD-luciferase reporter activity", "setting": "compound concentration: 10 uM", "result": "inactive: 0.236"}]}, {"smiles": "COC(=O)Nc1nc2cc(S(=O)c3ccccc3)ccc2[nH]1", "note": "(stereo not drawn)", "values": [{"measurement": "TEAD-luciferase reporter activity", "setting": "compound concentration: 200 nM", "result": "inactive: -0.0289"}, {"measurement": "TEAD-luciferase reporter activity", "setting": "compound concentration: 2 uM", "result": "inactive: 0.676"}, {"measurement": "TEAD-luciferase reporter activity", "setting": "compound concentration: 10 uM", "result": "inactive: -0.859"}]}, {"smiles": "C(=C\\[C@@H]1CCNC1)/c1cncnc1", "values": [{"measurement": "TEAD-luciferase reporter activity", "setting": "compound concentration: 200 nM", "result": "inactive: -0.154"}, {"measurement": "TEAD-luciferase reporter activity", "setting": "compound concentration: 2 uM", "result": "inactive: -0.543"}, {"measurement": "TEAD-luciferase reporter activity", "setting": "compound concentration: 10 uM", "result": "inactive: -0.256"}]}, {"smiles": "CCOC(=O)CCS[C@@H](CC(=O)OCC)c1ccccc1CCCCCCCCc1ccccc1", "values": [{"measurement": "TEAD-luciferase reporter activity", "setting": "compound concentration: 200 nM", "result": "inactive: 0.102"}, {"measurement": "TEAD-luciferase reporter activity", "setting": "compound concentration: 2 uM", "result": "inactive: -0.0082"}, {"measurement": "TEAD-luciferase reporter activity", "setting": "compound concentration: 10 uM", "result": "inactive: -1.36"}]}, {"smiles": "CN(C(=O)c1cccc(F)c1)c1ccc(O)cc1", "values": [{"measurement": "TEAD-luciferase reporter activity", "setting": "compound concentration: 200 nM", "result": "inactive: 0.368"}, {"measurement": "TEAD-luciferase reporter activity", "setting": "compound concentration: 2 uM", "result": "inactive: -0.411"}, {"measurement": "TEAD-luciferase reporter activity", "setting": "compound concentration: 10 uM", "result": "inactive: 2.56"}]}, {"smiles": "C=C(C)C1CC=C(CO)CC1", "note": "(stereo not drawn) [perillyl alcohol]", "values": [{"measurement": "TEAD-luciferase reporter activity", "setting": "compound concentration: 200 nM", "result": "inactive: 0.248"}, {"measurement": "TEAD-luciferase reporter activity", "setting": "compound concentration: 2 uM", "result": "inactive: 1.24"}, {"measurement": "TEAD-luciferase reporter activity", "setting": "compound concentration: 10 uM", "result": "inactive: -1.9"}]}, {"smiles": "Cc1c(Cn2ccnc2)c2ccccc2n1CCC(=O)O", "note": "[Dazmegrel]", "values": [{"measurement": "TEAD-luciferase reporter activity", "setting": "compound concentration: 200 nM", "result": "inactive: -1"}, {"measurement": "TEAD-luciferase reporter activity", "setting": "compound concentration: 2 uM", "result": "inactive: 0.76"}, {"measurement": "TEAD-luciferase reporter activity", "setting": "compound concentration: 10 uM", "result": "inactive: -0.832"}]}, {"smiles": "CC(C)OC(=O)Nc1ccc(Cl)cc1", "values": [{"measurement": "TEAD-luciferase reporter activity", "setting": "compound concentration: 200 nM", "result": "inactive: -0.414"}, {"measurement": "TEAD-luciferase reporter activity", "setting": "compound concentration: 2 uM", "result": "inactive: 1.44"}, {"measurement": "TEAD-luciferase reporter activity", "setting": "compound concentration: 10 uM", "result": "inactive: 1.33"}]}, {"smiles": "CC(C)(O)c1ccn2c(-c3ccc(F)c(-c4ccc(F)cc4C#N)c3)cnc2c1F", "values": [{"measurement": "TEAD-luciferase reporter activity", "setting": "compound concentration: 200 nM", "result": "inactive: -0.0615"}, {"measurement": "TEAD-luciferase reporter activity", "setting": "compound concentration: 2 uM", "result": "inactive: -2.73"}, {"measurement": "TEAD-luciferase reporter activity", "setting": "compound concentration: 10 uM", "result": "inactive: -2.64"}]}, {"smiles": "Cn1c(=O)c2nc[nH]c2n(C)c1=O", "note": "[Aminophylline]", "values": [{"measurement": "TEAD-luciferase reporter activity", "setting": "compound concentration: 200 nM", "result": "inactive: -0.391"}, {"measurement": "TEAD-luciferase reporter activity", "setting": "compound concentration: 10 uM", "result": "inactive: -1.29"}]}, {"smiles": "Cn1c(=O)c2nc[nH]c2n(C)c1=O", "values": [{"measurement": "TEAD-luciferase reporter activity", "setting": "compound concentration: 2 uM", "result": "inactive: -1.6"}]}, {"smiles": "Nc1ncc2ncn(CCC(CO)CO)c2n1", "values": [{"measurement": "TEAD-luciferase reporter activity", "setting": "compound concentration: 200 nM", "result": "inactive: 0.511"}, {"measurement": "TEAD-luciferase reporter activity", "setting": "compound concentration: 2 uM", "result": "inactive: -0.338"}, {"measurement": "TEAD-luciferase reporter activity", "setting": "compound concentration: 10 uM", "result": "inactive: -0.857"}]}, {"smiles": "COc1ccc2[nH]c(C(=O)N3CCC(CC(C)(C)O)CC3)cc2c1", "values": [{"measurement": "TEAD-luciferase reporter activity", "setting": "compound concentration: 200 nM", "result": "inactive: 1.01"}, {"measurement": "TEAD-luciferase reporter activity", "setting": "compound concentration: 2 uM", "result": "inactive: -1.03"}, {"measurement": "TEAD-luciferase reporter activity", "setting": "compound concentration: 10 uM", "result": "inactive: -0.959"}]}, {"smiles": "CCCCCCCCCCCCCCCCCCNC(=O)OC1CCN(C(=O)OCC(COC(=O)N(Cc2cccc[n+]2CC)C(=O)c2ccccc2OC)OC)CC1", "note": "(stereo not drawn)", "values": [{"measurement": "TEAD-luciferase reporter activity", "setting": "compound concentration: 200 nM", "result": "inactive: 0.229"}, {"measurement": "TEAD-luciferase reporter activity", "setting": "compound concentration: 2 uM", "result": "inactive: 1.09"}, {"measurement": "TEAD-luciferase reporter activity", "setting": "compound concentration: 10 uM", "result": "inactive: 1.13"}]}, {"smiles": "CCNCCc1ccc(CN(CC)c2cc(OC)ccc2[C@@H]2CCc3cc(O)ccc3C2)cc1", "note": "[Elacestrant (dihydrochloride)]", "values": [{"measurement": "TEAD-luciferase reporter activity", "setting": "compound concentration: 200 nM", "result": "inactive: 4.65"}, {"measurement": "TEAD-luciferase reporter activity", "setting": "compound concentration: 2 uM", "result": "inactive: -1.62"}, {"measurement": "TEAD-luciferase reporter activity", "setting": "compound concentration: 10 uM", "result": "inactive: -0.732"}]}, {"smiles": "NC[C@H]1CC[C@H](C(=O)O)CC1", "note": "[tranexamic acid, Xenoport]", "values": [{"measurement": "TEAD-luciferase reporter activity", "setting": "compound concentration: 200 nM", "result": "inactive: 0.0352"}, {"measurement": "TEAD-luciferase reporter activity", "setting": "compound concentration: 2 uM", "result": "inactive: 0.705"}, {"measurement": "TEAD-luciferase reporter activity", "setting": "compound concentration: 10 uM", "result": "inactive: -1.99"}]}, {"smiles": "CCn1c(SC)nnc1-c1ccncc1", "values": [{"measurement": "TEAD-luciferase reporter activity", "setting": "compound concentration: 200 nM", "result": "inactive: -1.31"}, {"measurement": "TEAD-luciferase reporter activity", "setting": "compound concentration: 2 uM", "result": "inactive: -0.502"}, {"measurement": "TEAD-luciferase reporter activity", "setting": "compound concentration: 10 uM", "result": "inactive: -0.037"}]}, {"smiles": "CC[C@@H](CO)Nc1nc(NCc2ccccc2)c2ncn(C(C)C)c2n1", "note": "[seliciclib]", "values": [{"measurement": "TEAD-luciferase reporter activity", "setting": "compound concentration: 2 uM", "result": "inactive: -0.708"}]}, {"smiles": "CCOC(=O)c1c(N)sc2c1CCN(Cc1ccccc1)C2", "values": [{"measurement": "TEAD-luciferase reporter activity", "setting": "compound concentration: 200 nM", "result": "inactive: -1.57"}, {"measurement": "TEAD-luciferase reporter activity", "setting": "compound concentration: 2 uM", "result": "inactive: 0.867"}, {"measurement": "TEAD-luciferase reporter activity", "setting": "compound concentration: 10 uM", "result": "inactive: -2.09"}]}, {"smiles": "O=c1c2[nH]nnc2nc2sc(CCC3CCCCC3)nn12", "values": [{"measurement": "TEAD-luciferase reporter activity", "setting": "compound concentration: 200 nM", "result": "inactive: -1.51"}, {"measurement": "TEAD-luciferase reporter activity", "setting": "compound concentration: 2 uM", "result": "inactive: 0.449"}, {"measurement": "TEAD-luciferase reporter activity", "setting": "compound concentration: 10 uM", "result": "inactive: -2.22"}]}, {"smiles": "CCCCCN(CCO)c1cc(N2CCCCC2)nc2ncnn12", "values": [{"measurement": "TEAD-luciferase reporter activity", "setting": "compound concentration: 200 nM", "result": "inactive: -0.344"}, {"measurement": "TEAD-luciferase reporter activity", "setting": "compound concentration: 2 uM", "result": "inactive: 1.03"}, {"measurement": "TEAD-luciferase reporter activity", "setting": "compound concentration: 10 uM", "result": "inactive: 1.11"}]}, {"smiles": "CC(C)c1c(O)cc(/C=C/c2ccccc2)cc1O", "values": [{"measurement": "TEAD-luciferase reporter activity", "setting": "compound concentration: 200 nM", "result": "inactive: 4.02"}, {"measurement": "TEAD-luciferase reporter activity", "setting": "compound concentration: 2 uM", "result": "inactive: 0.313"}, {"measurement": "TEAD-luciferase reporter activity", "setting": "compound concentration: 10 uM", "result": "active: 5.11"}]}, {"smiles": "CO[C@@]1(NC(=O)CSCC#N)C(=O)N2C(C(=O)[O-])=C(CSc3nnnn3C)CS[C@@H]21", "note": "[Cefmetazole sodium]", "values": [{"measurement": "TEAD-luciferase reporter activity", "setting": "compound concentration: 200 nM", "result": "inactive: -0.639"}, {"measurement": "TEAD-luciferase reporter activity", "setting": "compound concentration: 10 uM", "result": "inactive: 0.938"}]}, {"smiles": "CO[C@@]1(NC(=O)CSCC#N)C(=O)N2C(C(=O)[O-])=C(CSc3nnnn3C)CS[C@@H]21", "note": "[cefmetazole]", "values": [{"measurement": "TEAD-luciferase reporter activity", "setting": "compound concentration: 2 uM", "result": "inactive: -0.308"}]}, {"smiles": "OCCCCSc1ccc(Cl)cc1", "values": [{"measurement": "TEAD-luciferase reporter activity", "setting": "compound concentration: 200 nM", "result": "inactive: 1.73"}, {"measurement": "TEAD-luciferase reporter activity", "setting": "compound concentration: 2 uM", "result": "inactive: -1.09"}, {"measurement": "TEAD-luciferase reporter activity", "setting": "compound concentration: 10 uM", "result": "inactive: -0.832"}]}]}
